Binding data for three molecules are collected here from paper PMC4930482.

Chains of the proteins cited; added tags and fusions are not shown.
UniProt Q9BY78: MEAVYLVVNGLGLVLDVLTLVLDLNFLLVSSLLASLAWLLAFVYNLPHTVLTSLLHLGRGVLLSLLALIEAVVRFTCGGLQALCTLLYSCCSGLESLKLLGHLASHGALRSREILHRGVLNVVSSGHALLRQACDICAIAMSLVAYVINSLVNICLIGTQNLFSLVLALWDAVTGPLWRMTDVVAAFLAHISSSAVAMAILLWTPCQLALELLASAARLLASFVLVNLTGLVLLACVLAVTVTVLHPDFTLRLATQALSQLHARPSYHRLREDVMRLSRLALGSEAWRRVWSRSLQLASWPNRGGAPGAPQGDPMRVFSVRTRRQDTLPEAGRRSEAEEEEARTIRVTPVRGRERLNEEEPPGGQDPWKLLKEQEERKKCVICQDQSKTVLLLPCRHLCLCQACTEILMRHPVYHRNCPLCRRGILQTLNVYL

Test [1] deals with RNF26, wild type (coIP of Figures 5A and 5B) (UniProt Q9BY78). Kind of test: co-IP; coIP in HEK293T cells; RNF26 or I382R with endogenous partners (Figure 5A) or with TOLLIP, SQSTM1 and their UBD mutants (Figure 5B); blots against whole-cell lysate controls.
The target of the next test is RFP-RNF26 (UniProt Q9BY78). Kind of test: co-IP; complex formation between HA-RNF26 and GFP-TAX1BP1 or its mutants, and between RFP-RNF26 and FLAG-EPS15 or its mutant (Figure S5A); cells not named in the legend.

These are yes or no findings as the source states them, for the method shown. In cells and extracts the contact can be indirect. Some binding calls cover weakened binding; strength is not graded here. For part of these data: Where a sequence is shown, tags or fusion partners need not be part of it.

B1: USP15 (endogenous) (enzyme, UniProt Q9Y4E8 1-981)
chain: MAEGGAADLDTQRSDIATLLKTSLRKGDTWYLVDSRWFKQWKKYVGFDSWDKYQMGDQNVYPGPIDNSGLLKDGDAQSLKEHLIDELDYILLPTEGWNKLVSWYTLMEGQEPIARKVVEQGMFVKHCKVEVYLTELKLCENGNMNNVVTRRFSKADTIDTIEKEIRKIFSIPDEKETRLWNKYMSNTFEPLNKPDSTIQDAGLYQGQVLVIEQKNEDGTWPRGPSTPKSPGASNFSTLPKISPSSLSNNYNNMNNRNVKNSNYCLPSYTAYKNYDYSEPGRNNEQPGLCGLSNLGNTCFMNSAIQCLSNTPPLTEYFLNDKYQEELNFDNPLGMRGEIAKSYAELIKQMWSGKFSYVTPRAFKTQVGRFAPQFSGYQQQDCQELLAFLLDGLHEDLNRIRKKPYIQLKDADGRPDKVVAEEAWENHLKRNDSIIVDIFHGLFKSTLVCPECAKISVTFDPFCYLTLPLPMKKERTLEVYLVRMDPLTKPMQYKVVVPKIGNILDLCTALSALSGIPADKMIVTDIYNHRFHRIFAMDENLSSIMERDDIYVFEININRTEDTEHVIIPVCLREKFRHSSYTHHTGSSLFGQPFLMAVPRNNTEDKLYNLLLLRMCRYVKISTETEETEGSLHCCKDQNINGNGPNGIHEEGSPSEMETDEPDDESSQDQELPSENENSQSEDSVGGDNDSENGLCTEDTCKGQLTGHKKRLFTFQFNNLGNTDINYIKDDTRHIRFDDRQLRLDERSFLALDWDPDLKKRYFDENAAEDFEKHESVEYKPPKKPFVKLKDCIELFTTKEKLGAEDPWYCPNCKEHQQATKKLDLWSLPPVLVVHLKRFSYSRYMRDKLDTLVDFPINDLDMSEFLINPNAGPCRYNLIAVSNHYGGMGGGHYTAFAKNKDDGKWYYFDDSSVSTASEDQIVSKAAYVLFYQRQDTFSGTGFFPLDRETKGASAATGIPLESDEDSNDNDNDIENENCMHTN
Turning to B1, the binding entry in test [1] is listed as “binds”.

B2: EPS15 (endogenous) (protein, UniProt P42566 1-896)
chain: MAAAAQLSLTQLSSGNPVYEKYYRQVDTGNTGRVLASDAAAFLKKSGLPDLILGKIWDLADTDGKGILNKQEFFVALRLVACAQNGLEVSLSSLNLAVPPPRFHDTSSPLLISGTSAAELPWAVKPEDKAKYDAIFDSLSPVNGFLSGDKVKPVLLNSKLPVDILGRVWELSDIDHDGMLDRDEFAVAMFLVYCALEKEPVPMSLPPALVPPSKRKTWVVSPAEKAKYDEIFLKTDKDMDGFVSGLEVREIFLKTGLPSTLLAHIWSLCDTKDCGKLSKDQFALAFHLISQKLIKGIDPPHVLTPEMIPPSDRASLQKNIIGSSPVADFSAIKELDTLNNEIVDLQREKNNVEQDLKEKEDTIKQRTSEVQDLQDEVQRENTNLQKLQAQKQQVQELLDELDEQKAQLEEQLKEVRKKCAEEAQLISSLKAELTSQESQISTYEEELAKAREELSRLQQETAELEESVESGKAQLEPLQQHLQDSQQEISSMQMKLMEMKDLENHNSQLNWCSSPHSILVNGATDYCSLSTSSSETANLNEHVEGQSNLESEPIHQESPARSSPELLPSGVTDENEVTTAVTEKVCSELDNNRHSKEEDPFNVDSSSLTGPVADTNLDFFQSDPFVGSDPFKDDPFGKIDPFGGDPFKGSDPFASDCFFRQSTDPFATSSTDPFSAANNSSITSVETLKHNDPFAPGGTVVAASDSATDPFASVFGNESFGGGFADFSTLSKVNNEDPFRSATSSSVSNVVITKNVFEETSVKSEDEPPALPPKIGTPTRPCPLPPGKRSINKLDSPDPFKLNDPFQPFPGNDSPKEKDPEIFCDPFTSATTTTNKEADPSNFANFSAYPSEEDMIEWAKRESEREEEQRLARLNQQEQEDLELAIALSKSEISEA
Turning to B2, the binding entry in test [1] is on record as “binds”.

B3: FLAG-EPS15 (protein, UniProt P42566 1-896)
chain: MAAAAQLSLTQLSSGNPVYEKYYRQVDTGNTGRVLASDAAAFLKKSGLPDLILGKIWDLADTDGKGILNKQEFFVALRLVACAQNGLEVSLSSLNLAVPPPRFHDTSSPLLISGTSAAELPWAVKPEDKAKYDAIFDSLSPVNGFLSGDKVKPVLLNSKLPVDILGRVWELSDIDHDGMLDRDEFAVAMFLVYCALEKEPVPMSLPPALVPPSKRKTWVVSPAEKAKYDEIFLKTDKDMDGFVSGLEVREIFLKTGLPSTLLAHIWSLCDTKDCGKLSKDQFALAFHLISQKLIKGIDPPHVLTPEMIPPSDRASLQKNIIGSSPVADFSAIKELDTLNNEIVDLQREKNNVEQDLKEKEDTIKQRTSEVQDLQDEVQRENTNLQKLQAQKQQVQELLDELDEQKAQLEEQLKEVRKKCAEEAQLISSLKAELTSQESQISTYEEELAKAREELSRLQQETAELEESVESGKAQLEPLQQHLQDSQQEISSMQMKLMEMKDLENHNSQLNWCSSPHSILVNGATDYCSLSTSSSETANLNEHVEGQSNLESEPIHQESPARSSPELLPSGVTDENEVTTAVTEKVCSELDNNRHSKEEDPFNVDSSSLTGPVADTNLDFFQSDPFVGSDPFKDDPFGKIDPFGGDPFKGSDPFASDCFFRQSTDPFATSSTDPFSAANNSSITSVETLKHNDPFAPGGTVVAASDSATDPFASVFGNESFGGGFADFSTLSKVNNEDPFRSATSSSVSNVVITKNVFEETSVKSEDEPPALPPKIGTPTRPCPLPPGKRSINKLDSPDPFKLNDPFQPFPGNDSPKEKDPEIFCDPFTSATTTTNKEADPSNFANFSAYPSEEDMIEWAKRESEREEEQRLARLNQQEQEDLELAIALSKSEISEA
In the case of B3, the binding entry with RFP-RNF26 is “binds”.
